Measurements: publication PMC6521077
No constants are given. Whether binding was seen depends on the method and setting. In cells and extracts the contact can be indirect. Some binding calls cover weakened binding; strength is not graded here.

The chains behind the UniProt entries cited, without tags or fusion partners.
UniProt P18272: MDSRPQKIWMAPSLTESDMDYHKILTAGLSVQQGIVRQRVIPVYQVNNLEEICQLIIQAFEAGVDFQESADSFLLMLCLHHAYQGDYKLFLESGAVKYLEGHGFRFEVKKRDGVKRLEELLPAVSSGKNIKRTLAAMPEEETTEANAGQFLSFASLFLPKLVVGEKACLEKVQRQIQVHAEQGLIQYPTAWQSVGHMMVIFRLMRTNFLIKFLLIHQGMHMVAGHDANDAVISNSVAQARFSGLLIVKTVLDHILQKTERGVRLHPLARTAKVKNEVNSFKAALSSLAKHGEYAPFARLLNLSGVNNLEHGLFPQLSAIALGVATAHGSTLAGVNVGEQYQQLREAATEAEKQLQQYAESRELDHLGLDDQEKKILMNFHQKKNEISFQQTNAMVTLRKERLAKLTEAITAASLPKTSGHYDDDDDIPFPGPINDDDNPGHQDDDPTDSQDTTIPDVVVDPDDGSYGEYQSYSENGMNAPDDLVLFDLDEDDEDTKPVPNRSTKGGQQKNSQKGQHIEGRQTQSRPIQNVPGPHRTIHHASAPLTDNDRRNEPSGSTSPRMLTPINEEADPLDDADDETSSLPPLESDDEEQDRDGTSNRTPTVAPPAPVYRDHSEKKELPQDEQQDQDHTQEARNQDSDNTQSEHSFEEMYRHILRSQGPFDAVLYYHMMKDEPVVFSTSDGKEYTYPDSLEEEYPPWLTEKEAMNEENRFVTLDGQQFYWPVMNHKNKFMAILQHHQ
UniProt Q9Y265: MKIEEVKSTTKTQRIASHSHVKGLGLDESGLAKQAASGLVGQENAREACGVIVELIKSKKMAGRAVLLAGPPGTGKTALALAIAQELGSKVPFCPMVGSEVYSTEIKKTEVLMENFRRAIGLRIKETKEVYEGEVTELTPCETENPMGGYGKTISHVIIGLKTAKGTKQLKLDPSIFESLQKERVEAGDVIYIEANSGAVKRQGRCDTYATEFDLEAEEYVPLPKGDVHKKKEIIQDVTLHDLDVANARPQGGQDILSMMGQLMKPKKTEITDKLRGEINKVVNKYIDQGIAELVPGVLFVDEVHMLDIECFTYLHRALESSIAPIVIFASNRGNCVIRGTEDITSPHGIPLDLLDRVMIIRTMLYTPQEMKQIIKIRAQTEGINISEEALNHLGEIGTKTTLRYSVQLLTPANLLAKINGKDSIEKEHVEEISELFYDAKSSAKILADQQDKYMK
UniProt Q9Y230: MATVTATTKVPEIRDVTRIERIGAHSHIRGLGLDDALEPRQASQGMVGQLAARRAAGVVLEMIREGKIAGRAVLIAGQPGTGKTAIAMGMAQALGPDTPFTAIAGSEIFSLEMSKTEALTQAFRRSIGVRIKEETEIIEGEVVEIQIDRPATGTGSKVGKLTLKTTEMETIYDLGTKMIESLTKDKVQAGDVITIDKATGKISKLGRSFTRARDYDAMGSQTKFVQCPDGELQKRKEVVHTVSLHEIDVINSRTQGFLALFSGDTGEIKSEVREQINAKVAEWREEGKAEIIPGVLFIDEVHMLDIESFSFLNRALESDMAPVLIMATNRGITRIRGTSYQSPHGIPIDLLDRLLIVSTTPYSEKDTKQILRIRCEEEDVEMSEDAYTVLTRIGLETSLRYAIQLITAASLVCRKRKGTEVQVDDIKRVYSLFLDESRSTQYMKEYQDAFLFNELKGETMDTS

Experiments:
Assay in all cases: co-IP
[1] = biological target: HA-tagged Ebola virus nucleoprotein (pCAGGS-HA-EBOV-NP) (Ebola virus (EBOV)) (UniProt P18272)
[2] = biological target: FLAG-RUVBL1 (pCDNA-3xFLAG-Pontin) (UniProt Q9Y265)
[3] = biological target: HA-RUVBL2 (pCDNA-3xHA-Reptin) (UniProt Q9Y230)

## FLAG-RUVBL1 (pCDNA-3xFLAG-Pontin) (from UniProt Q9Y265 1-456)
[1]
  binding: binds

## HA-tagged Ebola virus nucleoprotein (pCAGGS-HA-EBOV-NP) (from UniProt P18272 1-739)
[2]
  binding: binds

## V5-tagged Ebola virus nucleoprotein (pCAGGS-NP-V5) (from UniProt P18272 1-739)
[3]
  binding: binds
